# These are yes or no findings as the source states them, for the method shown. Binding calls can cover weak binding; strength is not graded here.
# Molecular target: GST-Tax (human T cell leukemia virus type 1 (HTLV-1)) (UniProt P03409)
# Assay: pull-down; GST-Tax bound to glutathione-sepharose beads 1 hr at 4°C in TEE buffer (50 mM Tris-HCl pH 7.9, 1 mM EDTA, 1 mM EGTA); His-WIP1 added, 2 hours at 4°C; washed 4 times in TEN100 (20 mM Tris-HCl pH 7.4, 0.1 mM EDTA, 100 mM NaCl); western blot with anti-His and anti-Tax; both purified
substance,measurement,value
Recombinant His-tagged WIP1ΔEx6 (from UniProt O15297) (enzyme),binding,binds
